Test results: US7960339B2, “Antimicrobial peptides” (Österreichische Akademie der Wissenschaften, priority 2006, dated 2011)
At least one structure is not confirmed: it was looked up by name or label, or the drawing left a doubt.

Tested on: MonoMac6 cells
Assay: Release of TNFα from MonoMac6 cells stimulated by bacteria killed with antibiotics or peptides (ELISA)
Format: cell-based
Settings: E. coli strain 0:111 incubated over night with agent, then 15 hours on 10^5 MonoMac6 cells; FIG. 5
Procedure: Bacteria can be killed by different antibiotics, targeting different molecules essential for bacterial survival. When Gram-negative bacteria are killed, released LPS can stimulate production of cytokines, such as TNFα, or other inflammatory mediators. Comparison of well-established antimicrobial agents acting through different cellular targets with compounds of this invention were done in the following manner: bacteria (E. coli strain 0:111) were grown in LB medium to the absorbance at 600 nm of 0.4 and diluted 2500 fold in RPMI medium with added glucose. Different concentrations of antibiotics or peptides from this invention were added and incubated over night. 80 μl of cell suspension was added to the 100 μl containing 10^5 MonoMac6 cells and after 15 hours the release of TNFα to the medium was determined using ELISA test.

## CO[C@H]1/C=C/O[C@@]2(C)Oc3c(C)c(O)c4c(O)c(c(/C=N/N5CCN(C)CC5)c(O)c4c3C2=O)NC(=O)/C(C)=C\C=C\[C@H](C)[C@H](O)[C@@H](C)[C@@H](O)[C@@H](C)[C@H](OC(C)=O)[C@@H]1C [rifampicin]
  release of TNFα / stimulation of the monocytes: high stimulation of the monocytes
